This is one part of the list.
How the values were obtained:
Experiment in all cases: log2 fold change, soluble protein after heating vs DMSO (PISA); higher = thermal stabilisation; K562 cells, 10 uM, 30 min; active = over 0.2 and 3.5 SD of the protein, either way, in both replicates (recomputed)
[1] = compound: C1=CC=C(C=C1)[C@H](COC2=CC3=C(C=C2)NC(=O)N3)NC(=O)C4=CC=CN(C4=O)CC5=CC(=C(C=C5)F)F
Outline: (§1)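 Quantification of soluble protein used TMTpro 16plex LC-MS/MS, with channel sums equalised. Samples were the supernatant after 21,000xg for 90 min of pooled aliquots from K562 cells (2×10^6 cells/mL) treated with 10 μM compound for 30 min, heated for 3 min over 48°C-58°C, and extracted in PBS with 0.5% NP-40 at 4°C. Values, from duplicates, describe thermal stability against control samples on a log2 fold-change scale.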

Sequences of proteins named here, by UniProt entry; tags and fusion partners are left off. A change or cut given only in a name is not applied to a line headed by its entry.
UniProt A9UHW6: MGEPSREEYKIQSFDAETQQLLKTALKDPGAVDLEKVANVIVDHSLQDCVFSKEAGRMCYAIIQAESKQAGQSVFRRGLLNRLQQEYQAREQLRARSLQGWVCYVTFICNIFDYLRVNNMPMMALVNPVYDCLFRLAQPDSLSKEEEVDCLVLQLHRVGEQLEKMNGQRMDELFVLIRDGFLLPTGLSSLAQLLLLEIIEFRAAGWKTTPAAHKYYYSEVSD
UniProt Q99547: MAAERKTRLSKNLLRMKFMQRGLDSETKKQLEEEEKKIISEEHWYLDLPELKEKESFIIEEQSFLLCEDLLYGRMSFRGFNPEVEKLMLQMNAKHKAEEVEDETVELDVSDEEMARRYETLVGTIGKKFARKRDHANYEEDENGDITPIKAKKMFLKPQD
UniProt Q9H3L0: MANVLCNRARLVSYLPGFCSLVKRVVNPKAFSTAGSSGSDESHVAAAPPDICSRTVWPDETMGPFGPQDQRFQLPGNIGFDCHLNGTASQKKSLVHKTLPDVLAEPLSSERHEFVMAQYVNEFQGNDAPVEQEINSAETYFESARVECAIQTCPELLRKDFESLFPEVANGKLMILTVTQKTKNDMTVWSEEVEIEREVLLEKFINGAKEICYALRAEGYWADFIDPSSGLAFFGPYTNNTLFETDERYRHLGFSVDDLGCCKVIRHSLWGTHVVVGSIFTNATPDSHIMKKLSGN
UniProt Q7L1V2: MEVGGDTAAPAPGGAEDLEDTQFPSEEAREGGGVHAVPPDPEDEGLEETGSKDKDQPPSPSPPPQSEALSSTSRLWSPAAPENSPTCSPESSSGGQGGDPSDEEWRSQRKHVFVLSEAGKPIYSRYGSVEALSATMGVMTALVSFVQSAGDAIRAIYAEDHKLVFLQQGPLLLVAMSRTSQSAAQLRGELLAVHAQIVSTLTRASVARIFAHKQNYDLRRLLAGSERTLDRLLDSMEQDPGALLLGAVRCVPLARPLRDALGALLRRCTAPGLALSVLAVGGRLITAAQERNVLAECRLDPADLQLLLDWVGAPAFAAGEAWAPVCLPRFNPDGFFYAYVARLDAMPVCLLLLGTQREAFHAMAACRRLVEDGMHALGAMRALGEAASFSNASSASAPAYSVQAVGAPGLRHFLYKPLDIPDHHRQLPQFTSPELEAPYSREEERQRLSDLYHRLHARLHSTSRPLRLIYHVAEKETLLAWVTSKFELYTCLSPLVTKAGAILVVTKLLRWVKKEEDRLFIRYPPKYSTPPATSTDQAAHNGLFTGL
UniProt O95396: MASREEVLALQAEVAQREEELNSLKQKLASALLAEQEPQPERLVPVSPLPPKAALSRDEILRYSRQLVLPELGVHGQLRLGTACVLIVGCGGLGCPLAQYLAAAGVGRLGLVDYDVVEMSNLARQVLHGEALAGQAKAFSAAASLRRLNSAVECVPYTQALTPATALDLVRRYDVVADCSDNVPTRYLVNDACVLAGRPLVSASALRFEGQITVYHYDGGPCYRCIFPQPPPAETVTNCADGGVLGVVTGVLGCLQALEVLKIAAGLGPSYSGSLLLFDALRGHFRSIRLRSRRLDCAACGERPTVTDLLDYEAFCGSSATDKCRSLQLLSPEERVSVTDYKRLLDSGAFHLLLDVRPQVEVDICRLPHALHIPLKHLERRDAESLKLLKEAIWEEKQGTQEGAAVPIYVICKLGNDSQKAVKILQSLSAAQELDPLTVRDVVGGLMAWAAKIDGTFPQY
UniProt Q03111: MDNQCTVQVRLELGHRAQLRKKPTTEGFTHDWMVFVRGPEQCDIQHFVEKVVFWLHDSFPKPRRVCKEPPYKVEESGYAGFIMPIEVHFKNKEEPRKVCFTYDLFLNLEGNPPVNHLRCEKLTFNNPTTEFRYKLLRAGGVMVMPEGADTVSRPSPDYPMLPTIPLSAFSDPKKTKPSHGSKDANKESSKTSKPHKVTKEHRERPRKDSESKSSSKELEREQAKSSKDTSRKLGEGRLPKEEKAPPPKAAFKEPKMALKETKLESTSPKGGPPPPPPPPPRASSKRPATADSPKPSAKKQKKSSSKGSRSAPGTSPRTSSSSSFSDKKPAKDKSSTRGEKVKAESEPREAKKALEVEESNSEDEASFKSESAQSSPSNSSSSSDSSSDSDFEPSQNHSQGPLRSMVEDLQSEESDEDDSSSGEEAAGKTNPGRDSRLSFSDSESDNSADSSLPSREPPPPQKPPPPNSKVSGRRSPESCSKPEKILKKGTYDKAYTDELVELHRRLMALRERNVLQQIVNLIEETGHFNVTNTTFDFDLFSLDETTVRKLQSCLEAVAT
UniProt Q15014, whole entry, looked up: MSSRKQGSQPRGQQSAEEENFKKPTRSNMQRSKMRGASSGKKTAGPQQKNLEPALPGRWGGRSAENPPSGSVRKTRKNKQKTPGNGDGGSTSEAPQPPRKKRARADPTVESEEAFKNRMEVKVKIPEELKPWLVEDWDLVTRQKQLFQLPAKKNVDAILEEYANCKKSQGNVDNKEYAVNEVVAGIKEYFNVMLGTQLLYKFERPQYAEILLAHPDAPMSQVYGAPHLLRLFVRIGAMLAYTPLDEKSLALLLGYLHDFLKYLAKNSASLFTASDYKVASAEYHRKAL
UniProt Q8TAP9: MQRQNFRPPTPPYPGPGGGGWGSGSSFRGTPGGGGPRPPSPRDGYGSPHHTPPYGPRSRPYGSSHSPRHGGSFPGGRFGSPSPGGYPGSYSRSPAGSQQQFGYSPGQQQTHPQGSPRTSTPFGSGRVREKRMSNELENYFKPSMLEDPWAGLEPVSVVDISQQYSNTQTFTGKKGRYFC
UniProt Q8IYU8: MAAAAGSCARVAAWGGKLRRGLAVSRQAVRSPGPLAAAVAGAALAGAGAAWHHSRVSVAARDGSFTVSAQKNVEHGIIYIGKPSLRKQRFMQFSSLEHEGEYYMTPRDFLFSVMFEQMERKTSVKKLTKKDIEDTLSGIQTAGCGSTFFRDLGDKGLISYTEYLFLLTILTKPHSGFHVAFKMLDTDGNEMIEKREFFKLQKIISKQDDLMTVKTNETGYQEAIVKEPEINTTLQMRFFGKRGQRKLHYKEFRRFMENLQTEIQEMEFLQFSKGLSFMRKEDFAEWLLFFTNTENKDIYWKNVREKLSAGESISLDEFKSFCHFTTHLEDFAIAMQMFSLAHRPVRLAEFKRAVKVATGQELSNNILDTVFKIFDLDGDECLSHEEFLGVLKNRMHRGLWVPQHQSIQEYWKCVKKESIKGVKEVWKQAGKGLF
UniProt P29372, whole entry, looked up: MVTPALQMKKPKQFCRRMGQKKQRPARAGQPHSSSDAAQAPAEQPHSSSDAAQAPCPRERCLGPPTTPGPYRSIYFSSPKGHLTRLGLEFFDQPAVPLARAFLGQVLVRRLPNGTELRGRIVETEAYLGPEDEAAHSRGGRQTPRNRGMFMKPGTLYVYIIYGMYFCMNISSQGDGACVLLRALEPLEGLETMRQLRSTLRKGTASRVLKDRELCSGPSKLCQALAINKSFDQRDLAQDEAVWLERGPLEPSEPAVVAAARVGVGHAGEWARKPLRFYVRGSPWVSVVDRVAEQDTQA
UniProt Q13724: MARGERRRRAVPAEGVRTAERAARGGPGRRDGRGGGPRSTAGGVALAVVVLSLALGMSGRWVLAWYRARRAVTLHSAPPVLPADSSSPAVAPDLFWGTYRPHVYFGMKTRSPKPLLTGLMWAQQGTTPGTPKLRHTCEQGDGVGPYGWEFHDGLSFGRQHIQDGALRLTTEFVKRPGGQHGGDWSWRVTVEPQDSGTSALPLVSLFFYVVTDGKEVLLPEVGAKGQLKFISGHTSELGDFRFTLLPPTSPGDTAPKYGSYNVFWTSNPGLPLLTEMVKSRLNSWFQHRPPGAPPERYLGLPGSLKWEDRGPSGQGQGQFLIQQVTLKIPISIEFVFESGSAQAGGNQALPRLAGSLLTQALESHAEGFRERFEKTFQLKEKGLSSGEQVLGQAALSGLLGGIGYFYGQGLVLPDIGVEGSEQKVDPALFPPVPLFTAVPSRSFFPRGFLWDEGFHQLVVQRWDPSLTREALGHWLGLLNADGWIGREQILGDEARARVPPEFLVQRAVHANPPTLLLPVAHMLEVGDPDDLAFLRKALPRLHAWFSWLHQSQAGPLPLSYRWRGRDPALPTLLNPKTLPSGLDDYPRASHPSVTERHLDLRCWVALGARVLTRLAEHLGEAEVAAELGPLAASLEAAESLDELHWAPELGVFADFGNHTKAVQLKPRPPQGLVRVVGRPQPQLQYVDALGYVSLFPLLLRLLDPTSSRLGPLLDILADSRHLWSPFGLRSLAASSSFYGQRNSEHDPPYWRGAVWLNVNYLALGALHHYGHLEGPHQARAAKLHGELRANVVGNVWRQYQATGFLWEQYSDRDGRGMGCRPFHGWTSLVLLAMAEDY
UniProt O95297: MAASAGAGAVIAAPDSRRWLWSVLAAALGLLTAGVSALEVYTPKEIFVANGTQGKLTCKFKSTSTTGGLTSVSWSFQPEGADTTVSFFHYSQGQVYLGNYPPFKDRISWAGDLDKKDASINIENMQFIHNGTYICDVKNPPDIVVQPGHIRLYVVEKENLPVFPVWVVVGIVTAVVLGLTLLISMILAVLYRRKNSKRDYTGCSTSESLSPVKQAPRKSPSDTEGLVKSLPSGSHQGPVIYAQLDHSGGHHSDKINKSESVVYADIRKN

[2] = compound: CC1=C(SC2=C1C(=N[C@H](C3=NN=C(N32)C)CC(=O)N)C4=CC=C(C=C4)Cl)C
Outline: as §1

[3] = compound: CC1=C2C(=CC=C1)N=C(N(C2=O)C3=CC=CC=C3C)CN4C=NC5=C(N=CN=C54)N
Outline: as §1

[4] = compound: Cc1sc2c(c1C)C(c1ccc(Cl)cc1)=N[C@@H](CC(=O)OC(C)(C)C)c1nnc(C)n1-2
Outline: as §1

[5] = compound: c1ccc([C@@H]2C[C@H]2NC2CCNCC2)cc1
Outline: as §1

Measured: log2 fold change

MIF4GD isoform 3 (UniProt A9UHW6)
inactive: [1] 0.01 | [2] 0.106 | [3] 0.11 | [4] -0.059 | [5] 0.04

MPHOSPH6 (UniProt Q99547)
inactive: [1] 0.095 | [2] -0.083 | [3] 0.097 | [4] 0.08 | [5] -0.002

MRPL3 (UniProt P09001)
inactive: [1] 0.056 | [2] -0.107 | [3] -0.056 | [4] 0.037 | [5] -0.055

MRPL4 (UniProt Q9BYD3)
inactive: [1] 0.053 | [2] -0.057 | [3] -0.099 | [4] 0.097 | [5] -0.035

MRPL24 (UniProt Q96A35)
inactive: [1] 0.009 | [2] -0.101 | [3] -0.094 | [4] -0.002 | [5] 0.001

MRPL47 (UniProt Q9HD33)
inactive: [1] 0.042 | [2] -0.108 | [3] -0.131 | [4] 0.087 | [5] -0.01

MRPL43 isoform 4 (UniProt Q8N983)
inactive: [1] 0.059 | [2] -0.072 | [3] -0.11 | [4] 0.094 | [5] -0.034

MMADHC (UniProt Q9H3L0)
inactive: [1] 0.056 | [2] -0.155 | [3] 0.057 | [4] 0.088 | [5] 0.077

MON1B (UniProt Q7L1V2)
inactive: [1] -0.032 | [2] 0.044 | [3] 0.056 | [4] -0.008 | [5] -0.064

MOCS3 (UniProt O95396)
inactive: [1] 0.057 | [2] 0.056 | [3] 0.04 | [4] -0.018 | [5] 0.146

MLLT1 (UniProt Q03111)
inactive: [1] 0.034 | [2] -0.136 | [3] -0.217 | [4] 0.07 | [5] 0.037

MRPL21 (UniProt Q7Z2W9)
inactive: [1] 0.002 | [2] -0.13 | [3] -0.138 | [4] 0.06 | [5] -0.058

MORF4L2 (UniProt Q15014)
inactive: [1] 0.089 | [2] 0.001 | [3] -0.002 | [4] 0.028 | [5] 0.091

MRPL12 (UniProt P52815)
inactive: [1] -0.006 | [2] 0.076 | [3] -0.054 | [4] -0.082 | [5] -0.04

MRPL42 (UniProt Q9Y6G3)
inactive: [1] 0.11 | [2] -0.032 | [3] -0.14 | [4] 0.06 | [5] 0.097

MPLKIP (UniProt Q8TAP9)
inactive: [1] 0.001 | [2] -0.056 | [3] 0.03 | [4] -0.031 | [5] 0.027

MICB, A0A140T979
inactive: [1] 0 | [2] 0.041 | [3] -0.05 | [4] 0.026 | [5] -0.049

MICU2 (UniProt Q8IYU8)
inactive: [1] 0.013 | [2] -0.037 | [3] -0.123 | [4] -0.029 | [5] 0.021

MRPL34 (UniProt Q9BQ48)
inactive: [1] 0 | [2] -0.154 | [3] -0.073 | [4] 0.058 | [5] -0.051

MPG (UniProt P29372)
inactive: [1] -0.034 | [2] -0.003 | [3] 0.008 | [4] 0.06 | [5] 0.007

MRPL2 (UniProt Q5T653)
inactive: [1] 0.014 | [2] -0.12 | [3] -0.089 | [4] 0.031 | [5] -0.026

MOGS (UniProt Q13724)
inactive: [1] 0.053 | [2] 0 | [3] 0.033 | [4] -0.011 | [5] -0.01

Fetched one by one from above (two):
MRPL12 (UniProt P52815)
inactive: [1] -0.006 | [2] 0.076 | [3] -0.054 | [4] -0.082 | [5] -0.04

MOGS (UniProt Q13724)
inactive: [1] 0.053 | [2] 0 | [3] 0.033 | [4] -0.011 | [5] -0.01

(continued)

MPZL1 (UniProt O95297)
inactive: [1] 0.037 | [2] 0.068 | [3] 0.033 | [4] 0.014 | [5] -0.023

MRPL44 (UniProt Q9H9J2)
inactive: [1] 0.052 | [2] -0.122 | [3] -0.175 | [4] 0.051 | [5] -0.036

From the supplement of paper PMC10849652
